Measurements published in paper PMC7862700.
The list shows a part of the results, in another mix than the full data. For part of these data: At the low end of the ranking the order means little. Some of the results follow. For part of these data: Construct or isoform of the protein are uncertain.

Columns and labels:
GABPA = target: T1, GABPA (UniProt Q06546); assay: DAPPL (digital affinity profiling via proximity ligation, sequencing); settings: 10 mM Tris-HCl pH 7.5, 50 mM NaCl, 1 mM DTT, 4% glycerol, room temperature, 30 min; GST-TFs on glutathione beads, 16-mer random dsDNA library, 0.1% …; high values mean tight binding; double strand, one strand shown; scale: fold enrichment (6-mer frequency, TF over GST control)
T1 sequence: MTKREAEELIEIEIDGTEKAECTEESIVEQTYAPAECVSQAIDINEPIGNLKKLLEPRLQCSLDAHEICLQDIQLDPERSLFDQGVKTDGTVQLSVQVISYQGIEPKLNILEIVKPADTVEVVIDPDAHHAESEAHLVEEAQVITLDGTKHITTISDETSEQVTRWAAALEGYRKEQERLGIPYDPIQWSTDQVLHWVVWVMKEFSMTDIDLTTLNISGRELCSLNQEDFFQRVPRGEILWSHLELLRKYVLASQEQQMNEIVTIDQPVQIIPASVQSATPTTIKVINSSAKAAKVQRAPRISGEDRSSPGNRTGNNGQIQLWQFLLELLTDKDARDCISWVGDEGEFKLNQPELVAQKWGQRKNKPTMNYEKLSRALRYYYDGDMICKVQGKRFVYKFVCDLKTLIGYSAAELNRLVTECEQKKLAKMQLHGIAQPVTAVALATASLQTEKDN

ETS1 = target: T2, ETS1 (UniProt P14921); assay: as above; settings: 10 mM Tris-HCl pH 7.5, 50 mM NaCl, 1 mM DTT, 4% glycerol, room temperature, 30 min; GST-TFs on glutathione beads, 16-mer random dsDNA library, 0.1% …; high values mean tight binding; double strand, one strand shown; scale: fold enrichment (6-mer frequency, TF over GST control)
T2 sequence: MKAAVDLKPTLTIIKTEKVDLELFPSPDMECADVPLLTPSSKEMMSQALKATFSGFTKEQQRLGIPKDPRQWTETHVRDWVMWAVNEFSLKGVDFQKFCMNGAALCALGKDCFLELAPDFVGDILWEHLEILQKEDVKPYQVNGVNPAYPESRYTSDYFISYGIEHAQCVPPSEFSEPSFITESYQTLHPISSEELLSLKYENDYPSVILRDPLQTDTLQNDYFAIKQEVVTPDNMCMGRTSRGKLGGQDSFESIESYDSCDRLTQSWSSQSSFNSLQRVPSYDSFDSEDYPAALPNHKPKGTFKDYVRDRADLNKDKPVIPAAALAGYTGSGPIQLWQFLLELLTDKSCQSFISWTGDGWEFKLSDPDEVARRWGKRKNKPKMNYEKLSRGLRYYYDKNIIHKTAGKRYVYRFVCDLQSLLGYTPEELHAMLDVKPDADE

Row | Sequence | binding signal (GABPA) | binding signal (ETS1)
1 | CGCCCC | 1.11 | 1.12
2 | GCCCCG | 0.993 | 1.04
3 | TATGCA | 1.24 | 1.27
4 | GCATTT | 1.36 | 1.3
5 | ACGACA | 1.18 | 1.19
6 | TTTGTT | 1.31 | 1.27
7 | GTATTG | 1.04 | 1.1
8 | TTCGGT | 1.13 | 1.12
9 | TGGATA | 1.1 | 1.14
10 | AGTCCT | 0.978 | 1.07
11 | GGATGG | 0.983 | 1.07
12 | TTCACA | 1.23 | 1.22
13 | AAGGTT | 1.13 | 1.08
14 | CCTGAC | 1.49 | 1.53
15 | ACGTTG | 1.05 | 0.99
16 | CACCAC | 1.23 | 1.1
17 | TATCAC | 1.04 | 1.23
18 | CTGTAT | 1.31 | 1.36
19 | CCTAAC | 1.37 | 1.38
20 | CGCTGC | 1.25 | 1.18
21 | ACTAGG | 1.09 | 1
22 | GCCCCA | 0.985 | 1.02
23 | CATCAC | 1.18 | 1.2

Row | Sequence | binding signal (GABPA) | binding signal (ETS1)
24 | CGACAG | 0.99 | 0.953
25 | GTCCGC | 1 | 1.07
26 | CCTCCT | 1.57 | 1.6
27 | AAAGTA | 1.17 | 1.16
28 | AGGATG | 0.938 | 1.07
29 | ATTGTC | 1.16 | 1.14
30 | TAACGC | 1.21 | 1.15
31 | AGGATT | 0.924 | 0.977
32 | TAGCAA | 1.21 | 1.27
33 | TGGATC | 0.955 | 0.953
34 | TCAAGT | 1.07 | 1.15
35 | GATGGG | 0.992 | 1.04
36 | CCATCT | 1.32 | 1.34
37 | TCTATG | 1.21 | 1.14
38 | AGATGA | 0.995 | 1.1
39 | AGGATA | 0.939 | 1.01
40 | CGTCCA | 1.04 | 1.09
41 | TGAATG | 1.17 | 1.38
42 | TACACT | 1.51 | 1.65
43 | GGTCTC | 2.5 | 2.96
44 | TACACA | 1.15 | 1.25
45 | TGTCTT | 1.38 | 1.32
46 | ACGGAT | 1.21 | 1.25

Row | Sequence | binding signal (GABPA) | binding signal (ETS1)
47 | CCTGTG | 1.08 | 1.25
48 | TGCTCC | 1.45 | 1.43
49 | TCCATT | 1.3 | 1.37
50 | CATACG | 1.03 | 1.05
51 | TTGAAG | 0.905 | 0.929
52 | CGTCGA | 0.975 | 1.09
53 | CCGGTC | 0.973 | 1.17
54 | AGCGAC | 1.09 | 1.14
55 | TGCGCA | 1.07 | 1.14
56 | GTCTAT | 0.986 | 0.967
57 | CAGCCC | 1.06 | 1.17
58 | GAAAAC | 1.05 | 1.13
59 | TAACTG | 1.24 | 1.25
60 | AAGCGC | 1.12 | 1.23
61 | TTTTTT | 1.25 | 1.24
62 | CGGCAT | 1.07 | 1.18
63 | TGCCTT | 1.54 | 1.34
64 | CCACCA | 0.984 | 1.03
65 | AGCATC | 1.03 | 0.964
66 | GTGTTC | 1.26 | 1.06
67 | GCTAGC | 1.18 | 1.28
68 | GATACA | 0.994 | 0.962
69 | TCATCC | 1.39 | 1.33

Row | Sequence | binding signal (GABPA) | binding signal (ETS1)
70 | ACCGGT | 0.872 | 0.937
71 | AAGAAC | 1.15 | 1.16
72 | CTCCCT | 1.54 | 1.72
73 | TCATTA | 1.07 | 1.08
74 | TGCATC | 1.38 | 1.27
75 | CCCATA | 1.33 | 1.3
76 | TACGAC | 1.29 | 1.39
77 | GCTAAA | 1.07 | 1.12
78 | TGGCAT | 1.2 | 1.19
79 | TTCCGA | 1.43 | 1.61
80 | TTCCGG | 5.16 | 5.3
81 | CGATAG | 1.18 | 1.14
82 | CGATGG | 1.36 | 1.38
83 | CTGGTG | 1.01 | 0.998
84 | CGCCAC | 1.04 | 1.04
85 | TTAATC | 1.2 | 1.23
86 | GCTACA | 1.22 | 1.22
87 | ACCTGA | 1.03 | 1.09
88 | AAGCAT | 1.14 | 1.06
89 | CCGCAA | 1.36 | 1.37
90 | TAGTTC | 1.28 | 1.36
91 | AACTCT | 1.31 | 1.43
92 | TTTTAG | 1.19 | 1.22

Looked up above:
For binding signal (GABPA), AAGCAT is listed with 1.14
For binding signal (GABPA), CTCCCT is listed with 1.54
For binding signal (GABPA), AACTCT is listed with 1.31
For binding signal (ETS1), CGATAG is listed with 1.14
For binding signal (GABPA), CGCCAC is listed with 1.04
For binding signal (GABPA), GCTAAA is listed with 1.07

(continued)

Row | Sequence | binding signal (GABPA) | binding signal (ETS1)
93 | TCCGGT | 3.5 | 3.28
94 | AATCTT | 1.28 | 1.4
95 | GTCCAT | 0.99 | 1.17
96 | GCTTCC | 3.27 | 3.56
97 | TTTGCA | 1.34 | 1.29
98 | ATATAA | 1.2 | 1.18
99 | GTACCA | 0.938 | 1.11
100 | TGTTAG | 0.982 | 0.903
101 | GGCTAT | 0.995 | 0.99
102 | CTTAAC | 1.28 | 1.14
103 | GTACGA | 1.14 | 1.06
104 | CGTATC | 1.29 | 1.12
105 | CCTCTG | 1.63 | 1.47
106 | TGCTTG | 1.11 | 1.25
107 | GGTACA | 0.965 | 1.08
108 | GCCTGC | 1.07 | 1.09
109 | GGCATT | 1.04 | 1.13
110 | ACAACT | 1.4 | 1.36
111 | TGTTAC | 1.39 | 1.46
112 | TGCCGG | 0.998 | 1.03
113 | TTCGCG | 0.97 | 1.1
114 | GCTTAC | 1.05 | 1.17
